This experiment is described as follows: qHTS Assay for Lipid Storage Modulators in Drosophila S3 Cells.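 As to cell number change: cells counted by Cell Tracker Red CMTPX staining in the red channel.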 Conditions: BODIPY lipid droplet fluorescence, 18-24 h; for cell number change: measured here: cell count max response, cells fed with added oleic acid. In outline:
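Laser-scanning cytometry quantifies lipid droplet accumulation (500–530 nm total intensity; droplet/cell object ratio) in oleic acid-fed (400 uM added) Drosophila S3 cells treated with a concentration series. 20 uM Triacsin C defined 100% inhibition.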
On the technique in general: In qHTS, concentration-response curves come from the screen itself.

Setting [1] is: measured here: lipid fluorescence (Fed channel) AC50, cells fed with added oleic acid.
The mark [2] stands for this setting: measured here: cell number channel AC50, cells fed with added oleic acid.

As a reminder, the AC50 is the concentration at which the activity in the assay is half-maximal. A low value points to activity at low concentration.

The other results are listed elsewhere or left out. Shown are side measurements of this screen, not its main read-out; they come without a call. Most of these compounds were active or inconclusive in the main read-out, so they are no random draw. Potencies come from curve fits of mixed quality, noted in brackets.

Turning to `COc1ccccc1CC(NC(C)=O)C(=O)NC1CCN(C(=O)NCc2ccccc2)CC1` (stereo not drawn), the cell number change stood at 10.5%.
Take `Cc1csc(NC(=O)c2ccccc2C(=O)O)n1`: the cell number change was determined as 2.9%. Moreover, the AC50 under setting [1] was 16.4 µM [falling, partial curve].
Take `C=CCN=c1scc(-c2ccc3c(c2)NC(=O)CO3)n1/N=C(\C)c1ccccn1`: the cell number change was -8.3%. Besides, the AC50 under setting [1] was 11.6 µM [falling, partial curve, poor fit].
With `COC(=O)c1ccc(NC(=O)Cn2nnc3ccccc32)cc1`, the cell number change was determined as 95%. Further, the concentration at half-maximal activity (AC50) under setting [2] is 25.9 µM [rising, partial curve]. The half-maximal activity concentration (AC50) under setting [1] was 23.1 µM [rising, partial curve].
Take `Cc1[nH]c2ccc(C(=O)N3CCN(c4ccc(F)cc4)CC3)cc2c1C`: the cell number change was 6.11%. Besides, the AC50 under setting [1] is 0.116 µM [rising, full curve].
Take `O=C(Nc1nc2ccc(Cl)cc2s1)c1cccc(N2C(=O)CCC2=O)c1`: the cell number change is -19.3%. The AC50 under setting [1] is 1.84 µM [falling, full curve, poor fit].
In the case of `Cn1c(=O)cc(OCC(=O)NCCCN2CCN(c3ccccc3F)CC2)c2ccccc21`, the cell number change is 8.49%. Also, under setting [1], the AC50 was 6.51 µM [rising, single point].
With `CNc1cnn(-c2ccc(C)cc2)c(=O)c1Sc1ccc(C)cc1`, the cell number change is -37%. Moreover, the AC50 under setting [1] is 1.46 µM [falling, full curve, poor fit].
`CCCCOC(=O)c1ccc(NC(=O)c2nn(C)cc2Br)cc1`: the cell number change is -3.5%. Further, the AC50 under setting [1] is 20.6 µM [falling, single point].
As to `Cc1cccc2c1N(CCOc1ccc(C(C)(C)C)cc1)C(=O)C2=O`, the cell number change is -66.9%. In addition, under setting [2], the AC50 was 23.1 µM [falling, partial curve, poor fit]. Besides, under setting [1], the concentration at half-maximal activity (AC50) was 23.1 µM [falling, single point].
As to `O=C(N/N=C/c1c(O)n(Cc2ccco2)c(=O)[nH]c1=O)c1ccccc1`, the cell number change turned out to be 14%. The AC50 under setting [1] was 0.00461 µM [falling, full curve, poor fit].
For the compound `Cc1[nH]c2ccccc2c1C(c1ccccn1)c1c(C)[nH]c2ccccc12`, the cell number change is -40.8%. For the same compound, the half-maximal activity concentration (AC50) under setting [2] is 29.1 µM [falling, single point].
Consider `CC(C)(C)C1CCC(C(=O)Nc2ccc(N3CCOCC3)cc2N2CCOCC2)CC1` (stereo not drawn), for which, under setting [1], the AC50 is 4.61 µM [falling, partial curve, poor fit].
Turning to `CCN(Cc1cc2ccccc2[nH]c1=O)C(=O)c1cccc([N+](=O)[O-])c1`, the cell number change came out at 13.9%. Besides, the AC50 under setting [1] was 1.64 µM [rising, full curve, poor fit].
`CCN(CC)S(=O)(=O)c1ccc(N2CCCC2)c(C(=O)OCC(=O)N2CCCC2)c1`: the cell number change is -1.2%. Besides, the concentration at half-maximal activity (AC50) under setting [1] was 29.1 µM [rising, single point].
As to `COC(=O)CSC1=C(C#N)C(c2ccccc2OC)C(C(=O)OC)C(=O)N1` (stereo not drawn), the cell number change is 0.916%. The AC50 under setting [1] is 0.731 µM [falling, single point].
On to `N/C(=N\OC(=O)Cc1ccccc1)c1ccc(Br)cc1`, for which the cell number change was found to be 25.5%. Further, the concentration at half-maximal activity (AC50) under setting [1] was 10.3 µM [rising, partial curve].
For `Cc1ccc(C)c(S(=O)(=O)N2CCNCC2)c1`, the cell number change is -24.6%. Also, the AC50 under setting [1] was 16.4 µM [falling, partial curve].
As to `CC1CSC(N(C(=O)c2ccc(S(C)(=O)=O)cc2)c2ccc(Cl)cc2)=N1` (stereo not drawn), the cell number change was -4.32%.
`O=C(Nc1ccc(F)cc1)c1sc(Cl)nc1-c1ccccc1`: the cell number change came out at 18.7%.
Take `COc1cc(Nc2nnc(C)s2)c(Cl)cc1Cl`: the cell number change is -11.7%. The concentration at half-maximal activity (AC50) under setting [1] is 3.66 µM [falling, partial curve].
`CS(=O)(=O)N(CC(=O)N1CCOCC1)Cc1ccccc1`: the cell number change was -32.2%. For the same compound, the AC50 under setting [2] is 29.1 µM [falling, single point]. Moreover, under setting [1], the AC50 is 18.4 µM [falling, partial curve].
For `CSCCC(NC(=O)c1ccccc1)C(=O)Nc1ccncc1` (stereo not drawn), the cell number change came out at 42.6%. Moreover, the half-maximal activity concentration (AC50) under setting [2] was 7.31 µM [rising, partial curve]. In addition, the concentration at half-maximal activity (AC50) under setting [1] is 23.1 µM [rising, single point].
Turning to `CCOc1cccc2c1OC(c1cc(OC)c(OC)c(OC)c1)N1N=C(c3ccc(C)o3)CC21` (stereo not drawn), the cell number change was -12.6%. Besides, under setting [1], the half-maximal activity concentration (AC50) is 25.9 µM [falling, single point].
As for `CCC(=O)NCCc1cc2ccc(C)cc2[nH]c1=O`, the AC50 under setting [1] was 0.58 µM [rising, single point].
With `COCCNC(=O)c1c(NC(=O)c2nc(SC)ncc2Cl)sc2c1CCCC2`, the cell number change is -74%. Further, the AC50 under setting [2] was 23.1 µM [falling, single point].
As to `O=C(NC1CCCC1)C(c1ccncc1)N(C(=O)c1csnn1)c1ccc(Cl)cc1` (stereo not drawn), the cell number change was -6.31%.
For `CCOc1ccc(CN(C)C(=O)c2cc3ccccc3o2)cc1OC`, the cell number change was -5.71%. In addition, the AC50 under setting [1] was 6.51 µM [rising, single point].
Regarding `COc1cc(NC(=O)c2cc(S(=O)(=O)N3CCc4ccccc43)cn2C)cc(OC)c1OC`, the cell number change was found to be 31.4%. Also, the AC50 under setting [2] was 16.4 µM [rising, single point].
Take `COc1ccc(S(=O)(=O)N2CCn3c2nc2ccccc23)cc1`: the cell number change amounted to 22.5%. Besides, under setting [2], the AC50 was 4.11 µM [rising, single point]. Also, the AC50 under setting [1] is 9.2 µM [rising, partial curve].
Turning to `Cc1ccc(SCC(=O)N2CCCC2)cc1`, the cell number change was -25.3%. Moreover, the AC50 under setting [2] was 0.411 µM [falling, full curve, poor fit].
Regarding `CCc1ccc(N=CC2=C(O)CC(c3ccco3)CC2=O)cc1` (stereo not drawn), the cell number change is -18.4%.
`CCN(CC)S(=O)(=O)c1ccc(C(=O)N2CCN(CCN3C(=O)c4cccc5cccc(c45)C3=O)CC2)cc1`: the cell number change stood at 48.1%. Also, the AC50 under setting [2] is 0.00461 µM [rising, full curve, poor fit].
`CC(=O)Nc1cccc(NC(=O)CSc2nnc(Cc3cccn3C)n2-c2ccc(F)cc2)c1`: the AC50 reads like this: under setting [2], 6.51 µM [rising, single point]; under setting [1], 6.51 µM [rising, single point].
Turning to `N#CCOC(=O)C1CSC2(c3ccc(Br)cc3)CCC(=O)N12` (stereo not drawn), the cell number change came out at 62.6%.
As for `CC(C)Cn1c(N)c(C(=O)COC(=O)CCc2nc3ccccc3s2)c(=O)n(C)c1=O`, the cell number change was 16.6%. In addition, the half-maximal activity concentration (AC50) under setting [2] is 0.82 µM [rising, full curve, poor fit]. Further, under setting [1], the AC50 is 3.66 µM [rising, single point].
Consider `O=C(Nc1ccc2nc3n(c(=O)c2c1)CCCCC3)C(=O)N1CCN(c2ccccc2F)CC1`, for which the cell number change was determined as 16.9%.
Turning to `CCc1cccc(C)c1NC(=O)C1CCCN(S(C)(=O)=O)C1` (stereo not drawn), the cell number change stood at 4.67%. Moreover, the concentration at half-maximal activity (AC50) under setting [1] is 3.26 µM [rising, full curve].

The record behind these values is PubChem BioAssay AID2685 (National Center for Advancing Translational Sciences (NCATS), 2010).
